Among all 340,000 compounds or so, about 170 (0.05%) were called active. The inconclusive results got no clear call from the source; some entries with a clear call stand among them for comparison. The call rests on the fitted dose curve; in most records, active means well fitted inhibition curve with a large enough effect in the signal ratio, with a control signal flat (not every such curve was filed as active); inconclusive means small, poorly fitted or top-dose-only effect, or effect the other way, or a change in a side signal; inactive means flat fitted curve, though single readings scatter; the % refers to the signal ratio. Potencies of inconclusive entries are doubtful fits and often do not repeat.
Experiment: qHTS Assay to Find Inhibitors of Chronic Active B-Cell Receptor Signaling;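 on activity change, negative = inhibition: plate controls were basal doxycycline-induced cells for no effect and cells given 10 µM MG132 for full effect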
Details: ABC-DLBCL IkBa-CBG/CBR reporter, luminescence ratio (green luciferase fused to IkBa over red control in TMD8 lymphoma cells), 4 h; activity change, negative = inhibition: at 46.1 µM (top of the series)
Outline: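 Cell line TMD8 (human ABC DLBCL), stably expressing tet-inducible CBG68-IkBa fusion and CBR; IMDM/0.5% FBS; cpd up to 46 uM; dox induction, 4 h, 37C/5% CO2; dual luminescence; green/red ratio; MG132 control.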
For C=CCN(C(C)=O)C1CC(=O)N(c2ccc(OCCC)cc2)C1=O (stereo not given), the activity change, negative = inhibition was inconclusive: -1.37%.
In the case of O=C(Nc1ccc(-c2cn3ccsc3n2)cc1)C1COc2ccccc2O1 (stereo not given), the “activity change, negative = inhibition” value is reported as inactive: 2.82%.
For CCOC(=O)N1CCC(=NNC(=O)c2ccc(O)cc2)CC1, the Potency was inconclusive: 4.11 µM [falling, partial curve].
With COc1ccc(C(=O)/C=C/c2cn(CC(O)CN3CCN(C)CC3)c3ccccc23)cc1OC (stereo not given) the Potency was inconclusive: 22.4 µM [falling, single point].
For N#Cc1ccc(CN2CCN(C(=O)CNS(=O)(=O)c3ccc4c(c3)OCCCO4)CC2)cc1, the activity change, negative = inhibition was inconclusive: -0.278%.
With O=C(Nc1cccc(C(F)(F)F)c1)C1CCCCC1 the activity change, negative = inhibition was inconclusive: 15.2%.
In the case of Cc1ccc(N/C=C(\C#N)c2ccc(OCCCF)cc2)cc1, the activity change, negative = inhibition is reported as inconclusive: 5.83%.
With COc1ccc(NC(=O)CCc2c(C)nc3nc(C)nn3c2C)cc1 the activity change, negative = inhibition was inconclusive: -1.09%.
In the case of CCOC(=O)c1cccc(NC(=O)COc2nsnc2N2CCOCC2)c1, the activity change, negative = inhibition is reported as inconclusive: -23.2%.
With Cc1c(Cl)cnc(NC(=O)COC(=O)CCC(=O)c2cccs2)c1Cl the activity change, negative = inhibition was inconclusive: 5.18%.
For NC(=S)N/N=C1\CC(c2ccc3c(c2)OCCCO3)Oc2ccc(F)cc21 (stereo not given), the Potency was active: 17.8 µM.
For CC(C)(C)NC(=O)NC(=O)CN1C(=O)NC(c2ccccc2)(c2ccccc2)C1=O, the “activity change, negative = inhibition” value was inactive: -0.433%.
For COC(=O)C(Cc1cccc(C)n1)(c1ccccc1)c1ccccc1, the “activity change, negative = inhibition” value was inactive: -0.0046%.
For CC(C)C(=O)N1CCN(c2nc(-c3ccccc3)c3c(c2C#N)CCCC3)CC1, the “activity change, negative = inhibition” value was inactive: 29.7%.
In the case of CCN(Cc1ccccc1)C(=O)c1cc(COc2c(F)cccc2F)on1, the activity change, negative = inhibition is reported as inconclusive: -5.55%.
With N#Cc1ccc(C(=O)NC(=S)N2CCOCC2)cc1 the “activity change, negative = inhibition” value was inactive: 0.173%.
For O=C1c2ccccc2C(=O)N1CCSc1n[nH]c(=S)s1, the activity change, negative = inhibition was inconclusive: 14.2%.
For Cc1ccc(-n2cc(CN3CCN(c4ccccn4)CC3)c(-c3ccc(F)cc3)n2)cc1, the “activity change, negative = inhibition” value was inactive: 1.75%.
With CSc1ccc(/C=N/NC(=O)c2cccs2)cc1 the Potency was inconclusive: 5.62 µM [rising, single point].
In the case of COc1ccc2c(c1)OC[C@H]1[C@H]2N2C(=O)CN(Cc3ccco3)C(=O)[C@@]2(C)[C@H]1c1ccccc1, the activity change, negative = inhibition is reported as inconclusive: -1.63%.
With O=C(CSc1nnc2c3ccccc3c3ccccc3c2n1)Nc1ccccc1 the activity change, negative = inhibition was inconclusive: -18.9%.
For Oc1csc(Cc2nc(-c3ccc(Br)cc3)cs2)n1, the activity change, negative = inhibition was inconclusive: -1.24%.
For Cc1ccccc1C(=O)NN1C(=O)CSC1=S, the Potency was inconclusive: 0.366 µM [falling, full curve, poor fit].
With Fc1cc(F)cc(Nc2nc(Cl)nc(NC3CCCC3)n2)c1 the activity change, negative = inhibition was inconclusive: -16.6%.
With CCNC(=S)N(CCc1c(C)[nH]c2ccc(C)cc12)Cc1ccco1 the activity change, negative = inhibition was inconclusive: -1.62%.
For Fc1ccc(-n2cc(-c3ccccc3)c3c(NC4CCCCC4)ncnc32)cc1, the activity change, negative = inhibition was inconclusive: 12.1%.
In the case of Cc1ccc(C)c(C(=O)NCCN(C)C)c1, the “activity change, negative = inhibition” value is reported as inactive: 2.91%.
For O=C1C2C3C=CC(C3)C2C(=O)N1c1ccc2ccccc2n1 (stereo not given), the activity change, negative = inhibition was inconclusive: 8.98%.
With Cc1ccc(CN(C)C(=O)C2CCC(=O)N(CCc3ccccc3)C2)o1 (stereo not given) the “activity change, negative = inhibition” value was inactive: 8.17%.
For COc1cccc(Nc2ccccc2C(=O)O)c1, the activity change, negative = inhibition was inconclusive: 11.7%.
In the case of Cc1cc(C(=O)N/N=C/c2cccnc2)cs1, the activity change, negative = inhibition is reported as inconclusive: -6.79%.
With COc1ccc(C2NC(=O)c3sc4nc(C)c(C(C)=O)c(-c5ccc(Cl)cc5)c4c3N2)cc1 (stereo not given) the activity change, negative = inhibition was inconclusive: 2.31%.
For Cc1ccccc1OCC(=O)N/N=C/c1cccc2cccnc12, the Potency was inconclusive: 35.5 µM [falling, partial curve, poor fit].
For COc1ccc(C(=O)NC(=S)Nc2ccc3oc(=O)ccc3c2)cc1, the activity change, negative = inhibition was inconclusive: 5.64%.
With COc1ccccc1NS(=O)(=O)c1cccc(NC(=O)c2sc3ccccc3c2Cl)c1 the activity change, negative = inhibition was inconclusive: 1.15%.
With NC(=O)c1nn(CC(=O)Nc2cccc(S(=O)(=O)N3CCCC3)c2)c(=O)c2ccccc12 the “activity change, negative = inhibition” value was inactive: -5.6%.
With O=C(CCN1C(=O)/C(=C/c2cccs2)SC1=S)N1CCCCC1 the “activity change, negative = inhibition” value was inactive: -0.255%.
With CC(C)(C)c1ccc(OCC(=O)NNC(=O)c2cccnc2)cc1 the “activity change, negative = inhibition” value was inactive: 15%.
With CCc1cccc(NC(=O)c2cccc3c2C(=O)N(CC2CCCO2)C3)c1 (stereo not given) the Potency was inconclusive: 5.62 µM [activator, partial curve, poor fit].
With CCCNc1nc(NCC)nc(OC)n1 the activity change, negative = inhibition was inconclusive: -1.38%.
In the case of COc1cccc(/C=N/NC(=O)c2cc3c(OC)c(OC)ccc3[nH]2)c1OC, the activity change, negative = inhibition is reported as inconclusive: -13.3%.
For c1nc(N2CCNCC2)c2sc3nc(N4CCOCC4)c4c(c3c2n1)CCC4, the “activity change, negative = inhibition” value was inactive: -1.55%.
In the case of COc1cc(C=O)cc(Br)c1OCC(N)=O, the Potency is reported as inconclusive: 35.5 µM [falling, single point].
In the case of CCc1ccc(-n2c(SCc3ccccc3F)nc3[nH]ncc3c2=O)cc1, the activity change, negative = inhibition is reported as inconclusive: 5.75%.
With CC(C)OCCCNC(=O)C1CCC(CNS(=O)(=O)c2ccccc2)CC1 (stereo not given) the activity change, negative = inhibition was inconclusive: 0.856%.
For COc1cc(OC)cc(-c2nc(-c3ccccc3OC)no2)c1, the Potency was inconclusive: 25.9 µM [rising, single point].
For N#C/C(=C\c1c(N(Cc2ccccc2)Cc2ccccc2)nc2ccccn2c1=O)C(N)=O, the activity change, negative = inhibition was inconclusive: -11.5%.
In the case of O=C(Nc1cccc(Cl)c1N1CCCC1)c1ccco1, the activity change, negative = inhibition is reported as inconclusive: -4.72%.
In the case of Fc1ccc(C2=NN(c3ccccc3)C(c3ccco3)C2)cc1 (stereo not given), the activity change, negative = inhibition is reported as inconclusive: 13.3%.
In the case of COc1cc(C(=O)Nc2cccc(-c3nc4ncccc4o3)c2C)cc(OC)c1OC, the “activity change, negative = inhibition” value is reported as inactive: -0.461%.
For C/C(=N\NC(=O)c1cc(-c2ccc(C)s2)[nH]n1)c1ccncc1, the activity change, negative = inhibition was inconclusive: -8.96%.
With CCC(C)NC(=O)c1ccc2c(Cl)c3c(nc2c1)CCC3 (stereo not given) the activity change, negative = inhibition was inconclusive: -21.2%.
With CN(CCc1ccccc1)C(=O)c1ccc(NC(=O)Cc2cccc([N+](=O)[O-])c2)cc1 the “activity change, negative = inhibition” value was inactive: -0.0087%.
In the case of C[C@]12C[C@H](O)[C@H]3[C@@H](CCC4=CC(=O)CC[C@@]43C)[C@@H]1CC[C@@H]2C(=O)CO, the activity change, negative = inhibition is reported as inconclusive: -11.1%.

Source: PubChem BioAssay AID493014 (National Center for Advancing Translational Sciences (NCATS), 2011)
Potency means the concentration at half of the fitted maximal effect.
